# Laboratory results: PubChem BioAssay AID1159578 (Peter MacCallum Cancer Centre, 2015)
# Assay: 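Knock-downs that alter how fast lymphatic endothelial cells migrate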 (primary screen)
# Cells: human lymphatic endothelial cells
# Reagent: siRNA pool against human genes, 40 nM
# Time to read-out: 48 h after transfection
# Read-out: 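Cells stained with dye and imaged after a scratch; covered wound area and nuclei counted, duplicates averaged, migration set against mock wells and turned into a robust z-score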
# Direction: migration robust z-score: higher = faster migration into the scratch; migration relative to mock: higher = more scratch area covered than mock; nuclei per well: higher = more cells in the well
# Call rule: 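Migration changed when robust z exceeds 2 or falls below -2 and mean nuclei number is at least 3300; otherwise not called changed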
# Meaning of the calls: active = migration changed; inactive = no migration change, or too few cells
# In all, the deposit lists about 18,000 reagents; below is a part drawn at random. Over the whole deposit, about 1,030 (5.7%) got an active call. 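Inactive calls also include pools with fewer than 3300 nuclei, whose migration was not assessed.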 The raw values are shown without normalisation. Unmarked entries are inactive.
gene symbol,migration robust z-score,migration class with cell-count check,migration relative to mock,"nuclei per well, duplicate mean"
CHD6,0.26,migration z between -2 and 2; enough cells,0.86,6102
B3GNT6,0.57,migration z between -2 and 2; enough cells,0.92,6058
TMEM94,0.26,migration z between -2 and 2; enough cells,0.96,4464
MYO7B,0.39,migration z between -2 and 2; enough cells,0.99,7248
KCNN2,-0.26,migration z between -2 and 2; enough cells,0.76,5298
LIPJ,0.49,migration z between -2 and 2; enough cells,0.9,7146
PHF14,-1.29,migration z between -2 and 2; enough cells,0.56,5163
E2F3,-0.86,migration z between -2 and 2; enough cells,0.64,4528
DRD2,0.2,migration z between -2 and 2; enough cells,0.84,5611
HCRTR1,-0.2,migration z between -2 and 2; enough cells,0.76,5984
WIPF3,-1.71,migration z between -2 and 2; enough cells,0.45,4496
SNRNP35,0.14,migration z between -2 and 2; enough cells,0.92,5849
RFK,-0.36,migration z between -2 and 2; enough cells,0.74,5810
EFHD2,-2.12 (active),migration z below -2; enough cells,0.34,4500
ANAPC13,-1.58,migration z between -2 and 2; enough cells,0.48,6590
SLC24A5,0.02,migration z between -2 and 2; enough cells,0.89,5580
CYB5R1,0.39,migration z between -2 and 2; enough cells,0.88,4946
ZNF500,-0.79,migration z between -2 and 2; enough cells,0.68,5562
NOSTRIN,-1.52,migration z between -2 and 2; enough cells,0.49,5932
BMP8B,-0.5,migration z between -2 and 2; enough cells,0.71,5884
LACRT,0.48,migration z between -2 and 2; enough cells,1.01,6552
BAGE2,-1.19,migration z between -2 and 2; enough cells,0.58,5823
RASGRP4,-0.06,migration z between -2 and 2; enough cells,0.87,5617
ZNF670,-0.57,migration z between -2 and 2; enough cells,0.73,5498
PMF1,-0.9,migration z between -2 and 2; enough cells,0.65,6078
CHRDL1,-0.3,migration z between -2 and 2; enough cells,0.8,5641
NUP58,1.43,migration z between -2 and 2; enough cells,1.26,6732
CHMP3,-0.01,migration z between -2 and 2; enough cells,0.88,7087
RECK,0.03,migration z between -2 and 2; enough cells,0.9,5718
COMT,-3.21,under 3300 nuclei; migration not judged,0.18,2420
SRSF2,0.49,migration z between -2 and 2; enough cells,0.9,5530
GNL2,-0.52,migration z between -2 and 2; enough cells,0.7,4790
FUNDC2,-0.58,migration z between -2 and 2; enough cells,0.74,5766
RCBTB1,-0.44,migration z between -2 and 2; enough cells,0.77,7017
PTP4A2,-1.29,migration z between -2 and 2; enough cells,0.55,4628
WAC,1.34,migration z between -2 and 2; enough cells,1.23,6622
EFEMP2,1.45,migration z between -2 and 2; enough cells,1.27,4698
CMTM1,0.32,migration z between -2 and 2; enough cells,0.97,5224
RAB30,0.78,migration z between -2 and 2; enough cells,0.96,6206

Individual results from above.
Value for HCRTR1 in “migration relative to mock”: 0.76
RASGRP4, migration class with cell-count check → migration z between -2 and 2; enough cells
Under “nuclei per well, duplicate mean”, ANAPC13 reads 6590
